Measured values from the supplement of paper PMC7661543.
The effect of the compound repeats well; differences between the knockouts mostly do not.

System: MDA-MB-231
Experiment: relative cell number vs DMSO control (72 h) (% of DMSO); higher = less growth inhibition (more cells)
Protocol: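 QMAP-Seq: a pool of 5 breast cancer cell lines (ZR-75-1, SKBR3, HCC-38, MDA-MB-231, BT-20), each carrying 12 doxycycline-inducible Cas9 sgRNA perturbations (11 knockouts plus non-targeting sgNT), was treated with compounds for 72 h at four 10-fold doses (10 nM-10 uM or 1 nM-1 uM range). Barcodes were amplified and sequenced, and cell number was interpolated from 293T spike-in standard curves. The result is expressed as % of the median of DMSO wells. Two biological replicates.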

CCOC(=O)c1ccc(N2NC(=O)C(=Cc3ccc([N+](=O)[O-])o3)C2=O)cc1 [PYR41]
Conditions | relative cell number
sgRNA knockout: sgATF3, 10 nM | 115
sgRNA knockout: sgATF3, 100 nM | 114.8
sgRNA knockout: sgATF3, 1000 nM | 108
sgRNA knockout: sgATF3, 10000 nM | 84.2
sgRNA knockout: sgATF4, 10 nM | 120
sgRNA knockout: sgATF4, 100 nM | 66.1
sgRNA knockout: sgATF4, 1000 nM | 94.5
sgRNA knockout: sgATF4, 10000 nM | 105
sgRNA knockout: sgATF6, 10 nM | 119
sgRNA knockout: sgATF6, 100 nM | 112
sgRNA knockout: sgATF6, 1000 nM | 103
sgRNA knockout: sgATF6, 10000 nM | 95.9
sgRNA knockout: sgATG7, 10 nM | 103
sgRNA knockout: sgATG7, 100 nM | 86.9
sgRNA knockout: sgATG7, 1000 nM | 95.9
sgRNA knockout: sgATG7, 10000 nM | 91.4
sgRNA knockout: sgERN1, 10 nM | 115
sgRNA knockout: sgERN1, 100 nM | 102
sgRNA knockout: sgERN1, 1000 nM | 94
sgRNA knockout: sgERN1, 10000 nM | 103
sgRNA knockout: sgHSF1, 10 nM | 109
sgRNA knockout: sgHSF1, 100 nM | 93
sgRNA knockout: sgHSF1, 1000 nM | 109
sgRNA knockout: sgHSF1, 10000 nM | 100
sgRNA knockout: sgHSF2, 10 nM | 116
sgRNA knockout: sgHSF2, 100 nM | 82.6
sgRNA knockout: sgHSF2, 1000 nM | 105
sgRNA knockout: sgHSF2, 10000 nM | 114
sgRNA knockout: sgKEAP1, 10 nM | 110
sgRNA knockout: sgKEAP1, 100 nM | 85.6
sgRNA knockout: sgKEAP1, 1000 nM | 116
sgRNA knockout: sgKEAP1, 10000 nM | 106
sgRNA knockout: sgNFE2L2, 10 nM | 100
sgRNA knockout: sgNFE2L2, 100 nM | 103
sgRNA knockout: sgNFE2L2, 1000 nM | 115
sgRNA knockout: sgNFE2L2, 10000 nM | 89.7
sgRNA knockout: sgSLC35F2, 10 nM | 122
sgRNA knockout: sgSLC35F2, 100 nM | 103
sgRNA knockout: sgSLC35F2, 1000 nM | 110
sgRNA knockout: sgSLC35F2, 10000 nM | 88.4
sgRNA knockout: sgXBP1, 10 nM | 103
sgRNA knockout: sgXBP1, 100 nM | 88.8
sgRNA knockout: sgXBP1, 1000 nM | 119
sgRNA knockout: sgXBP1, 10000 nM | 67.3

O=C(CCc1ccc(O)cc1)c1c(O)cc(O)cc1O [Phloretin]
Conditions | relative cell number
sgRNA knockout: sgATF3, 10 nM | 88.5
sgRNA knockout: sgATF3, 100 nM | 112.94
sgRNA knockout: sgATF3, 1000 nM | 125
sgRNA knockout: sgATF3, 10000 nM | 105
sgRNA knockout: sgATF4, 10 nM | 112
sgRNA knockout: sgATF4, 100 nM | 140.8
sgRNA knockout: sgATF4, 1000 nM | 125
sgRNA knockout: sgATF4, 10000 nM | 143
sgRNA knockout: sgATF6, 10 nM | 86.9
sgRNA knockout: sgATF6, 100 nM | 128
sgRNA knockout: sgATF6, 1000 nM | 126
sgRNA knockout: sgATF6, 10000 nM | 109
sgRNA knockout: sgATG7, 10 nM | 97.6
sgRNA knockout: sgATG7, 100 nM | 94.7
sgRNA knockout: sgATG7, 1000 nM | 118
sgRNA knockout: sgATG7, 10000 nM | 102
sgRNA knockout: sgERN1, 10 nM | 129.2
sgRNA knockout: sgERN1, 100 nM | 94.8
sgRNA knockout: sgERN1, 1000 nM | 121
sgRNA knockout: sgERN1, 10000 nM | 115
sgRNA knockout: sgHSF1, 10 nM | 94.5
sgRNA knockout: sgHSF1, 100 nM | 111.7
sgRNA knockout: sgHSF1, 1000 nM | 92.3
sgRNA knockout: sgHSF1, 10000 nM | 86
sgRNA knockout: sgHSF2, 10 nM | 98.9
sgRNA knockout: sgHSF2, 100 nM | 90.8
sgRNA knockout: sgHSF2, 1000 nM | 97.4
sgRNA knockout: sgHSF2, 10000 nM | 102
sgRNA knockout: sgKEAP1, 10 nM | 110
sgRNA knockout: sgKEAP1, 100 nM | 97.1
sgRNA knockout: sgKEAP1, 1000 nM | 116
sgRNA knockout: sgKEAP1, 10000 nM | 112
sgRNA knockout: sgNFE2L2, 10 nM | 90.2
sgRNA knockout: sgNFE2L2, 100 nM | 83.54
sgRNA knockout: sgNFE2L2, 1000 nM | 110
sgRNA knockout: sgNFE2L2, 10000 nM | 100
sgRNA knockout: sgSLC35F2, 10 nM | 77.4
sgRNA knockout: sgSLC35F2, 100 nM | 92.8
sgRNA knockout: sgSLC35F2, 1000 nM | 125
sgRNA knockout: sgSLC35F2, 10000 nM | 115
sgRNA knockout: sgXBP1, 10 nM | 100
sgRNA knockout: sgXBP1, 100 nM | 113
sgRNA knockout: sgXBP1, 1000 nM | 106
sgRNA knockout: sgXBP1, 10000 nM | 123
